These are yes or no findings as the source states them, for the method shown. For part of these data: Binding seen in cells or lysates may run through a third protein. Some results given as binding are weak or reduced against the parent protein; the word gives no strength.
Tests used:
[1] = target: Biotin-labeled PD-L1 ICD peptide (amino acids 262-290) (UniProt Q9NZQ7); experiment: pull-down; purified Flag-PINK1 (full length or truncated) incubated with biotin-labeled PD-L1 ICD peptide in 25 mM Tris-HCl pH 7.4, 150 mM NaCl, 1 mM EDTA, 0.05% NP-40, 10% glycerol for 12 h at 4 °C; streptavidin sepharose beads or anti-Flag M2 affinity gel 1.5 h; five washes; immunoblot; both purified
[2] = target: PTEN-induced kinase 1 (PINK1), in HEK293T lysate (human (endogenous in HEK293T)) (UniProt Q9BXM7); experiment: co-IP; HEK293T cells lysed in IP Lysis buffer; lysates incubated with antibodies against PINK1 or PD-L1 overnight at 4 °C, Protein G Sepharose beads 3 h at 4 °C, six washes, immunoblot; IgG as control

Chains of the proteins cited; added tags and fusions are not shown. Lines headed by an entry give the natural chain unless they say otherwise; changes in a name come on top. Residues count along the entry.
UniProt Q9NZQ7: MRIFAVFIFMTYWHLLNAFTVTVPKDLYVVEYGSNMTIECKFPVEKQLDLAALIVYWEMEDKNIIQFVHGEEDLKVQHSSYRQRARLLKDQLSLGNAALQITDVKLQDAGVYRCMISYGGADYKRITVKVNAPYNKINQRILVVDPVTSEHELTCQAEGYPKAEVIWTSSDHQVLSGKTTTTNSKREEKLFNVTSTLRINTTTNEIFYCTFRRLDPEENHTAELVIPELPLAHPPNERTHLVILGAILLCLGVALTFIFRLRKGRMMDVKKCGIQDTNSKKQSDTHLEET
Biotin-labeled PD-L1 ICD peptide (amino acids 262-290): residues 262-290 of Q9NZQ7
UniProt Q9BXM7, residues 78-581: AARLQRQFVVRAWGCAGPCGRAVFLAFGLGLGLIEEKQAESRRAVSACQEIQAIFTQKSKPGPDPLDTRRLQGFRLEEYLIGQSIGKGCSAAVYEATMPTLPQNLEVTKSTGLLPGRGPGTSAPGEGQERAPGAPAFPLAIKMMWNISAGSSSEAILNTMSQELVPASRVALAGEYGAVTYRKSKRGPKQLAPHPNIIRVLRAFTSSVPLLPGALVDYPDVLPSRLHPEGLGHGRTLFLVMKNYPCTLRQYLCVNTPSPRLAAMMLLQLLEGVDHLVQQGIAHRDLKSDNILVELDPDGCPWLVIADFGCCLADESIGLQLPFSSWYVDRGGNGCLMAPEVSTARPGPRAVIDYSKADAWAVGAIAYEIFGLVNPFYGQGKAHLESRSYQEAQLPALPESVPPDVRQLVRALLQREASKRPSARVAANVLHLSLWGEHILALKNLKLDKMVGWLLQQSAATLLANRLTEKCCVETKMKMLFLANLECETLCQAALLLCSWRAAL

Substance | binding [1] | binding [2]
Flag-labeled full-length PINK1 (amino acids 1-581) (from UniProt Q9BXM7 78-581) | binds | –
PD-L1 extracellular domain (ECD) (from UniProt Q9NZQ7 19-238) (domain or fragment) | – | no binding
PD-L1, full length (FL) (from UniProt Q9NZQ7 19-290) | – | binds

From article PMC9977947, “Targeting ATAD3A-PINK1-mitophagy axis overcomes chemoimmunotherapy resistance by redirecting PD-L1 to mitochondria” (Cell Research, 2023)
